We go through one molecule from article PMC2362735, “New semisynthetic vinca alkaloids: chemical, biochemical and cellular studies” (British Journal of Cancer, 1999).

In this test the target is Tubulin from calf brain (calf (bovine)). In words: co-sedimentation; pelleting experiment: tubulin (printed 10 M, micro sign lost) without or with PFK (printed 2 M), assembly started with taxol (printed 20 M); 50 mM Hepes, 100 mM potassium chloride, 5 mM magnesium chloride, pH 7.0, 30C; 100 000 g for 20 min; pellets and supernatants on SDS-PAGE; some samples with vinblastine or KAR-2; both purified.

These are yes or no findings as the source states them, for the method shown. Binding can be weak; no strength is given.

B1: Phosphofructokinase [ATP: D-fructose 6-phosphate 1-phospho-transferase, EC 2.7.1.11] from rabbit skeletal muscle (enzyme, UniProt P00511 1-780)
chain: MTHEEHHAARTLGVGKAIAVLTSGGDAQGMNAAVRAVVRVGIFTGARVFFVHEGYQGLVDGGDHIREATWESVSMMLQLGGTVIGSARCKDFREREGRLRAAHNLVKRGITNLCVIGGDGSLTGADTFRSEWSDLLSDLQKAGKITAEEATRSSYLNIVGLVGSIDNDFCGTDMTIGTDSALHRITEIVDAITTTAQSHQRTFVLEVMGRHCGYLALVTSLSCGADWVFIPECPPDDNWEDHLCRRLSETRTRGSRLNIIIVAEGAIDRNGKPITSEGVKDLVVRRLGYDTRVTVLGHVQRGGTPSAFDRILGSRMGVEAVMALLEGTPDTPACVVSLSGNQAVRLPLMECVQVTKDVTKAMDEKRFDEAMKLRGRSFMNNWEVYKLLAHIRPPAPKSGSYTVAVMNVGAPAAGMNAAVRSTVRIGLIQGNRVLVVHDGFEGPAKGQIEEAGWSYVGGWTGQGGSKLGSKRTLPKKSFEQISANITKFNIQGLVIIGGFEAYTGGLELMEGRKQFDELCIPFVVIPATVSNNVPGSDFSVGADTALNTICTTCDRIKQSAAGTKRRVFIIETMGGYCGYLATMAGLAAGADAAYIFEEPFTIRDLQANVEHLVQKMKTTVKRGLVLRNEKCNENYTTDFIFNLYSEEGKGIFDSRKNVLGHMQQGGSPTPFDRNFATKMGAKAMNWMAGKIKESYRNGRIFANTPDSGCVLGMRKRALVFQPVTELQNQTDFEHRIPKEQWWLKLRPILKILAKYEIDLDTSEHAHLEHISRKRSGEATV
Take B1: the binding result is reported as “binds”.
